Results as given in EP3689907A1.

Target: human IL-17A (human)
Experiment: competition ELISA: coated scFv, biotinylated IL-17A

binding: binds
B1: PRO571 (scFv)
scFv: DIQMTQSPSSLSASVGDRVTITCQASESIYRYLSWYQQKPGKAPKLLIYLASTLTSGVPSRFSGSGSGTDFTLTISSLQPEDFATYYCQSNFGTASTTYYNTFGGGTKLTVLGGGGGSGGGGSGGGGSGGGGSEVQLVESGGGLVQPGGSLRLSCAASGFSFSGFYYMCWVRQAPGKGLEWIGCIDTGDGTTYYASWAKGRFTISRDNSKNTVYLQMNSLRAEDTAVYYCARDAAYGGYAYPAHGMDLWGQGTLVTVSS

binding: binds
B2: PRO592 (scFv)
scFv: B1 scFv with R152T, Q251P

Residue numbers refer to the chain shown, from its start. No constants are given. Whether binding was seen depends on the method and setting. A result given as binding can be weak or reduced; the word gives no strength. Each block holds one binder with its values, some of them ahead of it.
